Assay results from patent US20130095189A1, “COMPOSITION AND METHOD OF PHYTONUTRIENTS FOR METABOLIC PROGRAMMING EFFECTS” (priority 2011, published 2013).
Some of these results come from one statement about several compounds together.

System: 2 year old (CCD-1092sk) normal primary human skin fibroblast cells
Assay: WST-1 cell viability / cytotoxicity assay, 2 year old cell model
Conditions: up to 50 μM, 24 hrs, percentage of control

Question: How did the cell viability turn out when O=c1c(O)c(-c2ccc(O)c(O)c2)oc2cc(O)cc(O)c12 [quercetin] was run?
Answer: The cell viability was “at least 80%”.
